In PubChem BioAssay AID1347426 (Functional Genomics Laboratory (NCATS/FGL), 2020):
The whole screen tested about 31,000 sequences, of which about 1,400 (4.5%) were called active.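 How the source made its calls: active means median seed-adjusted z-score above 1 or below -1; inactive means the rest.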 The list shows a part of the results.

Test: Novel Modifiers of Survival Motor Neuron (SMN) Protein: Gene Identification via Genome-wide siRNA Screen;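 further: luminescence tracks full-length SMN protein made from the SMN2 reporter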
Details: HEK293T SMN2-luciferase reporter, siRNA knockdown, 72 h; actives lie on both sides
Procedure, shortened: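 Steps: spot 1 pmol siRNA, add Lipofectamine RNAiMax in serum-free DMEM, seed HEK293T SMN2–luciferase reporter cells; incubate 72 h at 37 °C; add ONE-Glo; normalize luminescence to control siRNA, log10, MAD. Candidates: |MAD| > 1.0.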

Sequence | median seed-adjusted z-score
GAGAUCAAGCUGUACAGUATT against SIM2 | inactive: -0.19
GAUUCUUUAGGGUAUAGCATT against ABHD7 | inactive: -0.301
GAAUCUAGUCUGCAUGAAATT against ZNF192 | inactive: 0
GGAAUUAGGAGAAGGCAAATT against CYP7A1 | inactive: -0.0092
UGACGGUCCUACUACUGAATT against EFNB1 | inactive: -0.448
CGCAUCAAAUGGUCUAAGATT against VCAN | inactive: 0.0927
GACUGUGACUCGCACUGCATT against NTN3 | inactive: 0.298
CAGUUAGCCGCGCACCUAATT against COL9A3 | inactive: 0.16
CUUCUUACUUAUUUGCGUATT against ROS1 | inactive: -0.0561
GCAACAGCAUUAUGACCCATT against COL10A1 | inactive: -0.0291
GCAUCAUGACCGACGGUUATT against MPPED2 | inactive: 0.418
CCAUGUAUGUGAGAGUGAUTT against RCAN1 | inactive: -0.000195
GGAUGGAUCCUGAAGGUGATT against SUB1 | inactive: -0.571
GGUUAGGGCUUGACCCAAATT against HIBADH | inactive: 0.234
GAGUUUGAGCUGACGAAUATT against IQCH | inactive: 0
GCAGCUACCAAGGAAAGGATT against SH3BP1 | inactive: -0.225
CACUCUACGGCAACGUGUUTT against POU3F3 | inactive: -0.366
CGGUUCCAGUGAAGAUUGATT against SRP68 | inactive: 0.721
GGCCGAUGCUAAGGAGAUATT against POLR3H | inactive: 0
GGAUCCUGGUCAAAUAAAATT against ZDHHC14 | inactive: 0.312
GGUUAUGAGGUCACAGACATT against CACNB3 | inactive: 0.573
AGAACGUGGUGAUCUGGUATT against ZNF653 | inactive: -0.202

Sequence | median seed-adjusted z-score
CCAUAACUAUUGAAAACGATT against TRPC1 | inactive: -0.196
CCUGGUUUUUAUAAGAGAATT against SERPINC1 | inactive: -0.0822
ACACCAACGUAUGUCCAGATT against THSD4 | inactive: 0.0657
UGGGAAGCAUGGAACCUCATT against ACBD7 | inactive: -0.542
GCAUCAUCAAAGACCGGAUTT against KCTD17 | inactive: 0.492
CCAUGGAUACCAACCGGAATT against TMPRSS2 | inactive: 0.433
GUGUCAUAGCUAAAACGCATT against RLF | inactive: 0
GGAUAAUUUCUUUCGGUCUTT against MUTYH | inactive: 0.024
GCAAUUAUAUCAUAACUUATT against FOXE1 | inactive: -0.316
GGACUACAGUUCAGAGGCATT against SOX15 | inactive: -0.376
GCUUCAUCAUCUUAGUGUATT against IL2RB | inactive: 0.333
CCCGGACUCCUCCAAGAUATT against PPP1R14D | inactive: 0
CCUCCUCACCAAACCCAUUTT against SLC5A1 | inactive: -0.812
GACAGACAAUGGAAACGAATT against FABP2 | inactive: 0
GUAGGUGACUCGGUAAUAATT against TMEM171 | inactive: 0.278
GGAUUUGAACAAGAUCGAUTT against TBC1D9 | inactive: -0.0473
GACUCAUUCUGAAGUCGAATT against MMP13 | inactive: 0.265
GGAUCAGCUCAACCACAUUTT against MAPK3 | inactive: -0.573
CCGAAGUGGUUUUAGCUGATT against CAMK1D | inactive: -0.0629
CAAUGAGUAUGUGACGGAATT against UNC13A | active: -2.1
CAAUAUCUAUUGUUUCGUATT against OPN3 | inactive: -0.916
CUUCAUAUCUCUUUACGUATT against PIGW | inactive: -0.242

Quoted from the listing.
median seed-adjusted z-score with CAAUAUCUAUUGUUUCGUATT against OPN3 is entered as inactive: -0.916
median seed-adjusted z-score with GUAGGUGACUCGGUAAUAATT against TMEM171 is entered as inactive: 0.278
median seed-adjusted z-score with CUUCAUAUCUCUUUACGUATT against PIGW is entered as inactive: -0.242

(cont.)

Sequence | median seed-adjusted z-score
GCACAGGUCUAAUUCGUCUTT against GRIK1 | inactive: -0.31
GGUAGAAGAUGAGACGGUUTT against EZH1 | inactive: 0.268
GAACCUCGUUUCGAAAUUUTT against RIOK2 | inactive: -0.16
ACCUGACCCAUUUUACUAUTT against FXYD7 | inactive: -0.0312
GAAAGUACUGUGAACAUGATT against LIMS1 | inactive: -0.313
GCACGACAGUGAAAACGCATT against ITPR1 | inactive: -0.0888
CAGCCUUCGUGACACUAGATT against DECR1 | inactive: 0.0567
UAAAAUCUAGGGAUCCAAUTT against POLR2K | active: -3.72
GAACGGUCCAGUCACCAAATT against TRIM24 | inactive: -0.22
CCAUGUACUGGGUAUAGAATT against ZFP112 | inactive: -0.449
CCUCUAGAAGGAUCUAAUATT against MMP19 | inactive: 0.43
GGAACGAGGUAACAGUUGATT against CDC16 | inactive: 0.106
GGUCAACAAUGCUUAUGCATT against DHRS1 | inactive: 0
GCCUCAACCCUGUGCUGUATT against RXFP4 | inactive: -0.315
CACUGGAACUCAUAUUGUATT against NGF | inactive: -0.325
AAGUCGAAGAGAUACCAUUTT against ZNF768 | inactive: 0.169
GACCUGUCCUAGUAACAAATT against RNASE2 | inactive: 0.283
CGAAGCUACUUGACGAAAATT against IL16 | inactive: -0.471
GGAUGGAAAUGUAGACAUUTT against CAPN9 | inactive: 0.417
ACAUUAGCAUUUUCGUUGATT against SSX6 | inactive: -0.493
GGAAGUUUCUAGAGGAACATT against TRIM10 | inactive: -0.0934
GGUCGUAGAUUUAAAGGAATT against SSB | inactive: 0

Rewritten as labelled records: entries from further up.
CCAUGUACUGGGUAUAGAATT against ZFP112
  median seed-adjusted z-score: inactive: -0.449
CCUCUAGAAGGAUCUAAUATT against MMP19
  median seed-adjusted z-score: inactive: 0.43

The list continues.

Sequence | median seed-adjusted z-score
CCUGGAGUGUGGUGCUUAATT against FFAR1 | inactive: 0.248
CAAUAUCUGCCCUAACUCATT against DUSP13 | inactive: -0.772
GGAUGAUAUGUAGCUCCCATT against SIGIRR | inactive: 0.0269
GAAACUCCCUUAUAGUACATT against TBX3 | inactive: 0
CCAAUGACCAAGGAGCAUATT against RANBP6 | inactive: -0.696
CAUCGCCUAUAUGAAAUAUTT against PLA2G10 | active: 1.07
GAAGGGAGGGUGUACCAUUTT against ABL1 | inactive: -0.181
CAUGUACUCUGGGACCUUUTT against SLC25A20 | inactive: -0.183
CUUUUGCCUGUAGCCCAUATT against GCS1 | inactive: 0.819
GGAUCCUCCCAGUUUAACATT against CHSY1 | inactive: 0.247
GAGUAUGCCGUGAAGAUCATT against RPS6KA2 | inactive: 0.139
GGGUGAUGGUUGCAGUUUUTT against ZDHHC20 | inactive: -0.936
GCGGUACUUUGAGCAGUUATT against P4HA2 | inactive: 0
GACCCACAUUGAAUCUAGATT against PAH | inactive: 0.487
GCAGGUACAUCUCGCCUGATT against ENO1 | inactive: 0.0766
CAACUGCUCGGAUGCCCAUTT against SLC6A3 | inactive: 0.457
GUGUAUUCAUGGAUGCAGATT against GYG1 | inactive: 0.119
AGAUCAAGGACAUGGAGAATT against EFHD2 | inactive: 0.874
GAGUGUUCCUUUGCAUUGATT against ARFGAP3 | inactive: 0.00412
GCAAUUAACUCCACACGAATT against PXDNL | inactive: -0.186
GACCGACAUUUGUGAAGAATT against ZNF547 | inactive: 0.099
CUACGACGACGAGAAGGAATT against SERPINH1 | inactive: 0.186

Sequence | median seed-adjusted z-score
UCAGCCUCACGGAAACUCATT against EMX2 | inactive: 0.324
CACUCACCUUUUUCAAGAATT against SPSB3 | inactive: 0.457
GCGAGAAUCUGUUAGUAAATT against PANK3 | inactive: -0.185
GUGUUGGUAUUAUAUGAUATT against SLC25A31 | inactive: -0.615
GGCUCAAGGAAACCCAAUATT against AFF4 | inactive: -0.0637
GGAGAGCUACGGUUACUCATT against GABRD | inactive: 0.428
GGAGCUACCUGGAAAAAGUTT against PSMD7 | inactive: 0.0973
GGAAUACCAUGAGCUGUUATT against OSBP | inactive: 0.256
GGUCCGCAAAGGCUUCUGATT against VWA1 | inactive: 0.289
GGAGAACCAUUGUCAUAUATT against TFRC | inactive: 0.019
GAGCCUAAAUUCCAUUGUUTT against TYW1 | inactive: 0.201
CGAUCCUACCUACACCAGUTT against EPHB3 | inactive: -0.407
GGAGUACUCCUAUGACAUUTT against FGFR2 | inactive: 0.158
AGAGCAAGCGGAAAAGGGATT against HAND1 | inactive: 0.161
CCUGAUGAGCCGUACAUUATT against CLDN16 | inactive: -0.868
GCAUGACCCUCGUCACAUATT against THBS1 | inactive: -0.847
CACUAUCAACAAUAGCCUATT against FOXM1 | inactive: -0.399
GCUAAUGCAGAGUCAAGUATT against TRIM14 | inactive: -0.0636
CUAGUGAGCUCAUCGAAAATT against MYD88 | inactive: -0.365
